In the supplement of paper PMC10470496:
Where a name gives a salt, the structure may show the parent alone. Some of the results follow. Repeats are few or missing, and single values can be far off.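 The strains were three CDC resistance-bank clinical C. auris isolates from clades III, IV and I, cultured in RPMI-1640 at 35°C. Growth was background-corrected OD600 versus vehicle-only wells on the same plate. A hit needed >50% inhibition in two or more strains plus a plate-corrected B-score exceeding 0.1.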

Key:
Assay in all cases: growth relative to vehicle control (OD600 ratio) (fraction); higher = less inhibition
Conditions in all cases: 24 h
C. auris AR-384 = system: C. auris AR-384
C. auris AR-386 = system: C. auris AR-386
C. auris AR-387 = system: C. auris AR-387

Row | Structure (SMILES) | growth (C. auris AR-384; 1 µM) | growth (C. auris AR-384; 10 µM) | growth (C. auris AR-386; 1 µM) | growth (C. auris AR-386; 10 µM) | growth (C. auris AR-387; 1 µM) | growth (C. auris AR-387; 10 µM)
1 | CCC(=O)O[C@]1(C(=O)SCF)[C@H](C)C[C@H]2[C@@H]3C[C@H](F)C4=CC(=O)C=C[C@]4(C)[C@@]3(F)[C@@H](O)C[C@@]21C [Fluticasone propionate] | 0.97 | 0.92 | 0.7 | 0.68 | 0.61 | 0.77
2 | COc1nc(N)nc2c1ncn2[C@@H]1O[C@H](CO)[C@@H](O)[C@@H]1O [Nelarabine] | 0.77 | 1.16 | 1.04 | 0.69 | 0.75 | 0.77
3 | CC[C@H](C)C[C@H](C)CCCCCCCCC(=O)N[C@H]1C[C@@H](O)[C@@H](NCCN)NC(=O)[C@@H]2[C@@H](O)CCN2C(=O)[C@H]([C@H](O)CCN)NC(=O)[C@H]([C@H](O)[C@@H](O)c2ccc(O)cc2)NC(=O)[C@@H]2C[C@@H](O)CN2C(=O)[C@H]([C@@H](C)O)NC1=O [Caspofungin Acetate] | 0.78 | 0.87 | 0.44 | 0.75 | 0.56 | 0.25
4 | CO[C@H]1C(=O)[C@]2(C)[C@@H](OC)C[C@H]3OC[C@@]3(OC(C)=O)[C@H]2[C@H](OC(=O)c2ccccc2)[C@]2(O)C[C@H](OC(=O)[C@H](O)[C@@H](NC(=O)OC(C)(C)C)c3ccccc3)C(C)=C1C2(C)C [Cabazitaxel] | 0.94 | 0.82 | 0.79 | 1.05 | 0.69 | 0.77
5 | C[C@@H]1CC(=O)NN=C1c1ccc(NN=C(C#N)C#N)cc1 [Levosimendan] | 1.2 | 1.26 | 1.39 | 1 | 1.39 | 1.12
6 | CC(C)Cc1ccc(C(C)C(=O)O)cc1 (stereo unspecified) [Ibuprofen] | 0.66 | 0.57 | 0.67 | 0.83 | 0.91 | 0.73
7 | Cc1c(Nc2ncccc2C(=O)O)cccc1C(F)(F)F [Flunixin Meglumin] | 0.83 | 0.95 | 1.04 | 0.67 | 0.68 | 0.85
8 | COc1cc2c(Oc3ccc4[nH]c(C)cc4c3F)ncnc2cc1OCCCN1CCCC1 [Cediranib (AZD2171)] | 0.77 | 0.55 | 0.66 | 1.02 | 0.81 | 0.86
9 | COc1cc2c(cc1OC)C(=O)C(CC1CCN(Cc3ccccc3)CC1)C2 (stereo unspecified) [Donepezil HCl] | 1.35 | 1.28 | 0.9 | 0.99 | 0.94 | 0.95
10 | CCN1CCCC1CNC(=O)c1cc(S(=O)(=O)CC)c(N)cc1OC (stereo unspecified) [Amisulpride] | 0.81 | 0.88 | 1 | 0.67 | 0.88 | 0.98
11 | CN1CCC(COc2cnc(-c3cccc(Cn4nc(-c5cccc(C#N)c5)ccc4=O)c3)nc2)CC1 | 0.76 | 0.74 | 1.02 | 0.58 | 0.63 | 0.78
12 | CCOC(=O)[C@H](CCc1ccccc1)N[C@@H](C)C(=O)N1CCC[C@H]1C(=O)O [Enalapril Maleate] | 1.17 | 1.25 | 0.84 | 1.18 | 1.21 | 1.06
13 | CNC(=O)[C@@H](NC(=O)[C@H](CC(C)C)[C@H](O)C(=O)NO)C(C)(C)C [Marimastat (BB-2516)] | 1.2 | 1.46 | 1.41 | 1.26 | 1.58 | 1.35
14 | O=C1OCCN1/N=C/c1ccc([N+](=O)[O-])o1 [Furazolidone] | 1.05 | 0.78 | 0.94 | 0.92 | 1.12 | 1.19
15 | O=c1[nH]c2ccccc2n1CCN1CCN(c2cccc(C(F)(F)F)c2)CC1 [Flibanserin] | 0.86 | 0.98 | 1.04 | 1.04 | 0.93 | 1.08
16 | CCCC(=O)Nc1ncnc2c1ncn2[C@@H]1O[C@@H]2COP(=O)(O)O[C@H]2[C@H]1OC(=O)CCC [Dibutyryl-cAMP (Bucladesine)] | 0.83 | 0.73 | 0.78 | 0.77 | 1 | 0.98
17 | CCOC(=O)[C@@H](N)Cc1ccc(-c2cc(O[C@H](c3ccc(Cl)cc3-n3ccc(C)n3)C(F)(F)F)nc(N)n2)cc1 [Telotristat Etiprate (LX 1606 Hippurate)] | 1.18 | 1.31 | 1.01 | 0.65 | 0.91 | 1.07
18 | c1cnc2cc3c(cc2n1)[C@@H]1CNC[C@H]3C1 [Varenicline Tartrate] | 0.77 | 0.7 | 0.77 | 0.74 | 0.88 | 0.8
19 | CNCCC=C1c2ccccc2CCc2ccccc21 [Nortriptyline hydrochloride] | 1.18 | 1.2 | 1.24 | 1.03 | 0.88 | 1.16
20 | CC[C@H](C)[C@H](NC(=O)[C@@H]1CCCN1C(=O)CNC(=O)[C@H](Cc1ccccc1)NC(=O)[C@H](CC(N)=O)NC(=O)[C@H](CC(N)=O)NC(=O)[C@H](CO)NC(=O)[C@H](CO)NC(=O)[C@H](Cc1c[nH]cn1)NC(=O)[C@@H](NC(=O)[C@H](CC(C)C)NC(=O)[C@H](Cc1ccccc1)NC(=O)[C@H](CC(N)=O)NC(=O)[C@H](C)NC(=O)[C@H](CC(C)C)NC(=O)[C@H](CCCNC(=N)N)NC(=O)[C@H](CCC(N)=O)NC(=O)[C@@H](NC(=O)[C@H](C)NC(=O)[C@@H]1CSSC[C@H](NC(=O)[C@@H](N)CCCCN)C(=O)N[C@@H](CC(N)=O)C(=O)N[C@@H]([C@@H](C)O)C(=O)N[C@@H](C)C(=O)N[C@@H]([C@@H](C)O)C(=O)N1)[C@@H](C)O)C(C)C)C(=O)N[C@@H](CC(C)C)C(=O)N1CCC[C@H]1C(=O)N1CCC[C@H]1C(=O)N[C@H](C(=O)N[C@@H](CC(N)=O)C(=O)N[C@H](C(=O)NCC(=O)N[C@@H](CO)C(=O)N[C@@H](CC(N)=O)C(=O)N[C@H](C(=O)N[C@@H](Cc1ccc(O)cc1)C(N)=O)[C@@H](C)O)C(C)C)[C@@H](C)O [Pramlintide Acetate] | 0.72 | 0.94 | 0.53 | 0.71 | 0.78 | 0.81
21 | COc1ccccc1OCC(O)CO (stereo unspecified) [Guaifenesin] | 1.03 | 0.84 | 0.94 | 0.86 | 1.01 | 0.94

An excerpt from above in order of formula weight, ascending.
Row | Structure (SMILES) | growth (C. auris AR-384; 1 µM) | growth (C. auris AR-384; 10 µM) | growth (C. auris AR-386; 1 µM) | growth (C. auris AR-386; 10 µM) | growth (C. auris AR-387; 1 µM) | growth (C. auris AR-387; 10 µM)
21 | COc1ccccc1OCC(O)CO (stereo unspecified) [Guaifenesin] | 1.03 | 0.84 | 0.94 | 0.86 | 1.01 | 0.94
6 | CC(C)Cc1ccc(C(C)C(=O)O)cc1 (stereo unspecified) [Ibuprofen] | 0.66 | 0.57 | 0.67 | 0.83 | 0.91 | 0.73
12 | CCOC(=O)[C@H](CCc1ccccc1)N[C@@H](C)C(=O)N1CCC[C@H]1C(=O)O [Enalapril Maleate] | 1.17 | 1.25 | 0.84 | 1.18 | 1.21 | 1.06
1 | CCC(=O)O[C@]1(C(=O)SCF)[C@H](C)C[C@H]2[C@@H]3C[C@H](F)C4=CC(=O)C=C[C@]4(C)[C@@]3(F)[C@@H](O)C[C@@]21C [Fluticasone propionate] | 0.97 | 0.92 | 0.7 | 0.68 | 0.61 | 0.77
4 | CO[C@H]1C(=O)[C@]2(C)[C@@H](OC)C[C@H]3OC[C@@]3(OC(C)=O)[C@H]2[C@H](OC(=O)c2ccccc2)[C@]2(O)C[C@H](OC(=O)[C@H](O)[C@@H](NC(=O)OC(C)(C)C)c3ccccc3)C(C)=C1C2(C)C [Cabazitaxel] | 0.94 | 0.82 | 0.79 | 1.05 | 0.69 | 0.77
